Amino acid sequences for entries named in this document (tags omitted). A change or cut given only in a name is not applied to a line headed by its entry.
UniProt Q8NBI6: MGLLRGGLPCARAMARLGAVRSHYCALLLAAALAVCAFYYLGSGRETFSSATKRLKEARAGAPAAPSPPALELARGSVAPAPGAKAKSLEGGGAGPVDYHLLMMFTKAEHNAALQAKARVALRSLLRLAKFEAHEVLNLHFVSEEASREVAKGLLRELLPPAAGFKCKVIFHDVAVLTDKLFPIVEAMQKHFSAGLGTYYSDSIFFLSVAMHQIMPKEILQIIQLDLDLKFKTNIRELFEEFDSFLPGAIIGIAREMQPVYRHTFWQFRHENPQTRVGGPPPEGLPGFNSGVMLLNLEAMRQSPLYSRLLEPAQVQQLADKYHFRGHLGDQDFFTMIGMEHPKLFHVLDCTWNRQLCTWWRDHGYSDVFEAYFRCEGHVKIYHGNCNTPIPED
UniProt P27348: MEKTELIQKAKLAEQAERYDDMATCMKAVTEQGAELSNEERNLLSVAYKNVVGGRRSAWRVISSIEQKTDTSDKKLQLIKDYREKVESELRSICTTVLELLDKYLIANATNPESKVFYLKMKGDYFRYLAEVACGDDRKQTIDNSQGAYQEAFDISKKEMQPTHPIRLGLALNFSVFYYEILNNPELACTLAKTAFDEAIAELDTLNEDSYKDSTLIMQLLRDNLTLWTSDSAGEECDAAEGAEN
UniProt Q96QU8: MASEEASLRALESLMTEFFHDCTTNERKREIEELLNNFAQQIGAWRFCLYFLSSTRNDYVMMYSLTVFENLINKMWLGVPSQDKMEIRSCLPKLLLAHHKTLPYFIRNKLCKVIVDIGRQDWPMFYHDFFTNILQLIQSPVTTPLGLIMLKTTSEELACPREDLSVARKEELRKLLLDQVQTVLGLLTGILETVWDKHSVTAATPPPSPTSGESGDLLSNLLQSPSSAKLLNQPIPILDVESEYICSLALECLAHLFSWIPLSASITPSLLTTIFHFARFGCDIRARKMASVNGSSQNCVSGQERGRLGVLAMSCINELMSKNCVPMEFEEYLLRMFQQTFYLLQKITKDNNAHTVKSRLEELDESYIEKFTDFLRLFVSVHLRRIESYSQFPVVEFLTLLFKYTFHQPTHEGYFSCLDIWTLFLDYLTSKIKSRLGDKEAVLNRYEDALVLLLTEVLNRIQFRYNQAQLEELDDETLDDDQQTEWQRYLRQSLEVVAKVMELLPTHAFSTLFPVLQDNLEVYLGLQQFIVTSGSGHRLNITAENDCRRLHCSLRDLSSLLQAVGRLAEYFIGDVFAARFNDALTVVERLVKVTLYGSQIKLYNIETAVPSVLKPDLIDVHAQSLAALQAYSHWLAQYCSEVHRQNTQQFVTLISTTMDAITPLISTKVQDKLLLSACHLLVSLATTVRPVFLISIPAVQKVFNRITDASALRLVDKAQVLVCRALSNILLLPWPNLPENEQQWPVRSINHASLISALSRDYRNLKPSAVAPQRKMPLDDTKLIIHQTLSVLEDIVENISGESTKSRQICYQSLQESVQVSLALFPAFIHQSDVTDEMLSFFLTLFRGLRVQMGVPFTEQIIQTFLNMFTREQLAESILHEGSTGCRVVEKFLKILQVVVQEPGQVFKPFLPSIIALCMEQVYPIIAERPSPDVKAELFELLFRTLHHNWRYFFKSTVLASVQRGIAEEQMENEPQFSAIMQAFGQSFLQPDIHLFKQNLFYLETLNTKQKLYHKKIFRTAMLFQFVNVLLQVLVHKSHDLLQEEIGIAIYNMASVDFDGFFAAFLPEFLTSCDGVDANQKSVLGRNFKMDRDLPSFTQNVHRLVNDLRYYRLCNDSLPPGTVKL
UniProt Q8TBF4: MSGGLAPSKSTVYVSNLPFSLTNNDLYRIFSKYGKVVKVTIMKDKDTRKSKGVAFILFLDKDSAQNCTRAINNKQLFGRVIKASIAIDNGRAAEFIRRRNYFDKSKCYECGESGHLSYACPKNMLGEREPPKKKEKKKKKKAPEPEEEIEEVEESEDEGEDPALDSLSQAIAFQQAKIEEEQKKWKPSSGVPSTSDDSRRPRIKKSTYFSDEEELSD
UniProt Q9UGR2: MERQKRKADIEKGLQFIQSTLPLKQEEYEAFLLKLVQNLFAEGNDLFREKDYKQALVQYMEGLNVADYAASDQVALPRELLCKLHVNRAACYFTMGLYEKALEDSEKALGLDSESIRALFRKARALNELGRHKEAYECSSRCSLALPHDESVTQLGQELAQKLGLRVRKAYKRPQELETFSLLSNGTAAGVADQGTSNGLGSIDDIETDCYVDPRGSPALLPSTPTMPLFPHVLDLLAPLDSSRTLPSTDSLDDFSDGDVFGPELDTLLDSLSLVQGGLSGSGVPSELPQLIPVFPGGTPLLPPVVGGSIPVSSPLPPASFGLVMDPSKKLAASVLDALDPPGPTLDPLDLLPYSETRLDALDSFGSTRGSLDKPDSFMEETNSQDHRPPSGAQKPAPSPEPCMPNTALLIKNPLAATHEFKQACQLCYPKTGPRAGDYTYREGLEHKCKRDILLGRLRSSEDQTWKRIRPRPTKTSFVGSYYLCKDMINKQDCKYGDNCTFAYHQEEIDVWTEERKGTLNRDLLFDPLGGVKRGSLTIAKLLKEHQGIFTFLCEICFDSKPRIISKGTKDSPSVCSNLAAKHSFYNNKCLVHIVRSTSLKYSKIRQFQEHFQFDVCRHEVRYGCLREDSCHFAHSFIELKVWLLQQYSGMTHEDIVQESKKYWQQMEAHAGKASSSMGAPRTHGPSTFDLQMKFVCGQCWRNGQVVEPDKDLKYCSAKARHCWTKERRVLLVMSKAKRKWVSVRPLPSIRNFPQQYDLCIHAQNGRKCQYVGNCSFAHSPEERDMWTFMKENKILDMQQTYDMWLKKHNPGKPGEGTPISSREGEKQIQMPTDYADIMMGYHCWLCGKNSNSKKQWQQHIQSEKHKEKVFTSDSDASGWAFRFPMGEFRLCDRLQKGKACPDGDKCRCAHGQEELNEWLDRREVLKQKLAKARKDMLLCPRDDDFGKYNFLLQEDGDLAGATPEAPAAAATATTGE
UniProt Q9NUD5: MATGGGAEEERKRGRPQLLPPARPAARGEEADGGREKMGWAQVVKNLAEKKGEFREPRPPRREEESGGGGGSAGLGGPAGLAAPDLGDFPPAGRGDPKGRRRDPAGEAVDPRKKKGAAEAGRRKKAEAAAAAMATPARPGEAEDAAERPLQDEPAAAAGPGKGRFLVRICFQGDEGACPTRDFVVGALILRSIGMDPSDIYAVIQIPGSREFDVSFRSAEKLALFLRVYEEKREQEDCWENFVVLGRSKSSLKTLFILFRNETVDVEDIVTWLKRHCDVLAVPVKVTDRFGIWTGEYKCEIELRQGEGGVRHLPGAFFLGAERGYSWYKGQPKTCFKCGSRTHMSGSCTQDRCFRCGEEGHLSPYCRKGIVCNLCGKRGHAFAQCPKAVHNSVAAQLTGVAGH
UniProt Q8TCF1: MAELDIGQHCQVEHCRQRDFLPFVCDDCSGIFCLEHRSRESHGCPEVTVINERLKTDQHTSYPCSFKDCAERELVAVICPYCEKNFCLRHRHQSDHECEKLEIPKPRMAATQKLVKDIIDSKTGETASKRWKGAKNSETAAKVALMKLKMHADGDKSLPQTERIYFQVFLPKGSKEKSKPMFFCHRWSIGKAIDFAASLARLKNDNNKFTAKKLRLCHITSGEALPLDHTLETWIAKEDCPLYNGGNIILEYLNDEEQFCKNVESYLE
UniProt Q9UPT8: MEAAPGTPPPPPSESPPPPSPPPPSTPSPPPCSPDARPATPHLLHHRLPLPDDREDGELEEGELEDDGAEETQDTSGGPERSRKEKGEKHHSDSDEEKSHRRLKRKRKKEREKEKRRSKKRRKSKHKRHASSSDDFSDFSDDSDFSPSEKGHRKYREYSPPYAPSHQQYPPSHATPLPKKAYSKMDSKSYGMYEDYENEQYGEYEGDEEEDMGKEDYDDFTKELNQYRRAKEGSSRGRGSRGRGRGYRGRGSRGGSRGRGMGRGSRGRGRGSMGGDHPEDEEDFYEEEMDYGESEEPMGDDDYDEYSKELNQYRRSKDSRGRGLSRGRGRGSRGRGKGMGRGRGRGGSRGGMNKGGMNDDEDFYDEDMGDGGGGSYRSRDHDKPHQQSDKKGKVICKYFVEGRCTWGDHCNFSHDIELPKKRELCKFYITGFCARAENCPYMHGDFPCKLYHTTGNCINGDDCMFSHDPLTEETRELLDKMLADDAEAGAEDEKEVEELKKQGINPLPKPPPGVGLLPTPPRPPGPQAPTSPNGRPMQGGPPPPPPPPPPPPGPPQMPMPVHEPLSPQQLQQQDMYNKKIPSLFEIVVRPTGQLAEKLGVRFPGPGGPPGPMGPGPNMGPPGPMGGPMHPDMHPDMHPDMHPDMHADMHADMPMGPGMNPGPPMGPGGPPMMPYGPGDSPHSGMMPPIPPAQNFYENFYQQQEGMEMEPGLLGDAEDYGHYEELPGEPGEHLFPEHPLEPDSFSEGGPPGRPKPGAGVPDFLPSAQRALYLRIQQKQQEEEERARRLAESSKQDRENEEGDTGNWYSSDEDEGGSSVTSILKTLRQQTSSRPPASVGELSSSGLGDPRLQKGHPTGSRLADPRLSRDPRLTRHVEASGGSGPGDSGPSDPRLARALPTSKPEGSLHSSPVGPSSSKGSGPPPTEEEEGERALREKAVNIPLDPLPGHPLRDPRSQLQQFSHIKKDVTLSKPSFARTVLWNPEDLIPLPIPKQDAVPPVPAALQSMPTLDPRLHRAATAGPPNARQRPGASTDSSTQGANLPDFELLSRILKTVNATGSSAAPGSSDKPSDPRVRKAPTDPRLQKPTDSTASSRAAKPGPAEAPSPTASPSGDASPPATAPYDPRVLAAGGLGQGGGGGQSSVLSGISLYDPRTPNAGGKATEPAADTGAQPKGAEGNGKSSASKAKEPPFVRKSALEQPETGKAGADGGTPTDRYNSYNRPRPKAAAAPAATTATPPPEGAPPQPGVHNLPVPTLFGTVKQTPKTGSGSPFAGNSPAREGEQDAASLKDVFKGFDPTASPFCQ
UniProt Q9HAV4: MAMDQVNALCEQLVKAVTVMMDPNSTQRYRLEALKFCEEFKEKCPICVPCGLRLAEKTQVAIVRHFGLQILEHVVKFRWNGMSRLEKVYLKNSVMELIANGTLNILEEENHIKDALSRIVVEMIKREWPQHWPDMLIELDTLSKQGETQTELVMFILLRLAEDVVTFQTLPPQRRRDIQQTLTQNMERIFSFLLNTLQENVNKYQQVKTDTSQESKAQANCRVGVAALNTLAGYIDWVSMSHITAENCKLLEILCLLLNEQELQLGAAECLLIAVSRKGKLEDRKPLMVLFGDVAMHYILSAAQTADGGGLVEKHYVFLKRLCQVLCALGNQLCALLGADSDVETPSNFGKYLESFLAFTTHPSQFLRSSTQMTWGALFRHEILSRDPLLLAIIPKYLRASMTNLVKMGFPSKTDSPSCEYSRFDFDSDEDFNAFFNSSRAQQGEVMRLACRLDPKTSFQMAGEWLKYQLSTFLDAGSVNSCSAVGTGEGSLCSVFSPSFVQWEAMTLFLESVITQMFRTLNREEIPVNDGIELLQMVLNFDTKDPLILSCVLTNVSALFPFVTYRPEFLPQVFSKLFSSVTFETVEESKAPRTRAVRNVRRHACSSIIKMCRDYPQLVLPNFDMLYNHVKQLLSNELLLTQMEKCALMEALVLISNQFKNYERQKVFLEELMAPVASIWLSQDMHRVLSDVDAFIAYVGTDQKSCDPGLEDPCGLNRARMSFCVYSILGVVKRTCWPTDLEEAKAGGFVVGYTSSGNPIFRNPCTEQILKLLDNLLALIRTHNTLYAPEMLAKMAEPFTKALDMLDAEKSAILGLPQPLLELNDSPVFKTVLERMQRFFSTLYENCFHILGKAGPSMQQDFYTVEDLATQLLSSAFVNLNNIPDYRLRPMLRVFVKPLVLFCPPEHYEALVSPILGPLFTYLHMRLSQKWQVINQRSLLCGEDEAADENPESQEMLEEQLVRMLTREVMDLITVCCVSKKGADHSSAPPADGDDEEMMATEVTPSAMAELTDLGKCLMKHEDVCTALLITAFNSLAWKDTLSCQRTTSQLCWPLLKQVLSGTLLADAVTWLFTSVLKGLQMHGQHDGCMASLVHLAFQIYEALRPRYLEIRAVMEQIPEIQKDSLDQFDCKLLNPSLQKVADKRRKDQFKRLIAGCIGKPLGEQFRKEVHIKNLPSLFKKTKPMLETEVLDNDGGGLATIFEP

This is one part of the list.
The targets below were run with CC1Cc2ccccc2N1C(=O)C1CCCN(C1)C(=O)CCl (mixture of isomers) [TRIM25 ligand 11 (diastereomer mixture)] (assay: probe-labelled cysteine peptide fold change vs DMSO (competition) (log2 fold change); higher = less target engagement (more negative = stronger competition)). Conditions: 10 µM; THP-1; incubation time: 4 h.
For “XXYLT1_Q8NBI6_350_LFHVLDCTWNR (UniProt Q8NBI6)”, the “probe-labelled cysteine peptide fold change” value was 0.0272.
With “ZC3HC1_Q86WB0_190_FQSLCHLDLQLPSLRPEDLK (UniProt Q86WB0)” the “probe-labelled cysteine peptide fold change” value was 0.379.
“YWHAQ_P27348_134_YLAEVACGDDR (UniProt P27348)” was tested, and the “probe-labelled cysteine peptide fold change” value was 0.0689.
“YES1_P07947_42_YRPENTPEPVSTSVSHYGAEPTTVSPCPSSSAK (UniProt P07947)” was tested, and the “probe-labelled cysteine peptide fold change” value was -0.0245.
For “XPO6_Q96QU8_547_LNITAENDCR (UniProt Q96QU8)”, the “probe-labelled cysteine peptide fold change” value was 0.178.
For “ZBTB11_O95625_214_LSNQFCDVTLLIEGEEYK (UniProt O95625)”, the “probe-labelled cysteine peptide fold change” value was 0.0844.
In the case of “ZCRB1_Q8TBF4_67_DSAQNCTR (UniProt Q8TBF4)”, the “probe-labelled cysteine peptide fold change” value is reported as 0.00857.
“XRCC5_P13010_339_CFSVLGFCK (UniProt P13010)” was tested, and the “probe-labelled cysteine peptide fold change” value was -0.0923.
For “ZC3H14_Q6PJT7_652_CTKPDCPFTHVSR (UniProt Q6PJT7)”, the “probe-labelled cysteine peptide fold change” value was -0.0758.
For “XRN2_Q9H0D6_276_DCEGLPR (UniProt Q9H0D6)”, the “probe-labelled cysteine peptide fold change” value was -0.0461.
“ZC3H7B_Q9UGR2_91_AACYFTMGLYEK (UniProt Q9UGR2)” was tested, and the “probe-labelled cysteine peptide fold change” value was -0.235.
In the case of “ZCCHC3_Q9NUD5_372_KGIVCNLCGK (UniProt Q9NUD5)”, the “probe-labelled cysteine peptide fold change” value is reported as -0.0495.
For “ZFAND1_Q8TCF1_25_DFLPFVCDDCSGIFCLEHR (UniProt Q8TCF1)”, the “probe-labelled cysteine peptide fold change” value was 0.0239.
In the case of “ZBTB33_Q86T24_32_GHGLFCDVTVIVEDRK (UniProt Q86T24)”, the “probe-labelled cysteine peptide fold change” value is reported as -0.00223.
In the case of “ZC3H4_Q9UPT8_433_FYITGFCAR (UniProt Q9UPT8)”, the “probe-labelled cysteine peptide fold change” value is reported as -0.116.
For “XPO5_Q9HAV4_1025_HEDVCTALLITAFNSLAWK (UniProt Q9HAV4)”, the “probe-labelled cysteine peptide fold change” value was 0.0361.
In the case of “XPO5_Q9HAV4_977_EVMDLITVCCVSK (UniProt Q9HAV4)”, the “probe-labelled cysteine peptide fold change” value is reported as -0.0798.
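Note: competitive chemoproteomic profiling in live THP-1 cells with an iodoacetamide desthiobiotin (IA-DTB) probe, comparing probe-labelled peptide intensities in compound-treated cells against DMSO-treated controls.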
